Experimental data reported in patent US20240376149A1, “Novel Modulators of GABABR1a” (VIB VZW, priority 2021, published 2024).
These are yes or no findings as the source states them, for the method shown. Some entries that bind do so weakly or less than the wild type.

Amino acid sequences for entries named in this document (tags omitted). Residues count along the entry.
UniProt Q9UBS5, residues 20-591: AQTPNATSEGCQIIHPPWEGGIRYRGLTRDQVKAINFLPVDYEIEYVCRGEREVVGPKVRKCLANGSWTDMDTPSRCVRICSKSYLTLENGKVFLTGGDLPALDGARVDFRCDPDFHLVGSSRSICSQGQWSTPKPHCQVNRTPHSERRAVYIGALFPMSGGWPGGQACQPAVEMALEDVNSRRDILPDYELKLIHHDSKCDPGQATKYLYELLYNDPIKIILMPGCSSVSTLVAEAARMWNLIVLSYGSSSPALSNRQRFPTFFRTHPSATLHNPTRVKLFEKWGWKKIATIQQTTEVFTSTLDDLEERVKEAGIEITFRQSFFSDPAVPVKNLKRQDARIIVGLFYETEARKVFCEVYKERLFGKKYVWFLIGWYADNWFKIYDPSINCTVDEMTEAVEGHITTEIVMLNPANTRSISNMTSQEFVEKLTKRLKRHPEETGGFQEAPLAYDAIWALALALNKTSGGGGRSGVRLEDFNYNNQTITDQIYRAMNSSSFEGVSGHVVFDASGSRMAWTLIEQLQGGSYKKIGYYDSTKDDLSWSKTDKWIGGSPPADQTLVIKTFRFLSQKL

Molecular target: Ectodomain of GABABR1a comprising SD1, expressed on HEK293 cells with N-terminal His-tag (human) (UniProt Q9UBS5)
Test: flow cytometry on HEK293 cells expressing the GABABR1a ectodomain, competition against biotinylated 9-mer

| Binder | binding |
| --- | --- |
| DVWWG (also called DVWWG 5-mer; wild-type 5-mer) [VIB_P33] | binds |
| DIWWS (also called VIB_34; DIWWS) [VIB_P34] | binds |
